Results deposited as PubChem BioAssay AID504793 (Drosophila RNAi Screening Center, 2011)

Assay: 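Knock-downs allowing continued mitosis even though DNA is damaged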 (primary screen)
Cells: Drosophila S2R+ cells
Reagents: long dsRNA against Drosophila genes, about 0.25 µg dsRNA per well
Duration: 4 days of dsRNA, then 4 hours of drug before read-out
Challenge: doxorubicin 0.5 µM for 4 hours to cause double-strand breaks, in cells also given a low, harmless dose of dsRNA against nbs to sensitise the assay
Measured: 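Per-well count of mitotic cells stained for phospho-histone H3 after doxorubicin exposure, used as mitotic index; counts are raw and not normalised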
Reading the numbers: mitotic cells: higher = more cells in mitosis, weaker G2 arrest
Call rule: 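a call needs confirmation in secondary tests, with other dsRNAs and a check of mitotic timing without damage, not just a high primary count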
Calls: active = confirmed in follow-up tests; inactive = not confirmed
The deposit covers about 23,000 reagents; shown is an unselected part of those with a known target gene and a result. In the full data, 62 (0.27%) are marked active. 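Calls come from follow-up tests whose scores are not deposited, so confirmed genes may have low counts here; counts are not normalised per plate.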 Raw values are not corrected between plates. A number with no mark means an inactive call. Names joined by + are all predicted targets of the reagent. Reagent sequences are not shown.

gene knocked down | dsRNA | mitotic cells, replicate 1
CG18675 (GeneID 50169) | DRSC08536 | 1
CG9313 (GeneID 37374) | DRSC04540 | 9
CG9313 (GeneID 37374) | DRSC27041 | 7
CG3225 (GeneID 33680) | DRSC00578 | 4
CG3225 (GeneID 33680) | DRSC30078 | 5
mh (GeneID 32480) | DRSC20168 | 7
pre-mod(mdg4)-W + pre-mod(mdg4)-Y + mod(mdg4) + 3 more | DRSC16328 | 7
DIP-iota (GeneID 33925) | DRSC02140 | 8
DIP-iota (GeneID 33925) | DRSC23965 | 10
CG13042 (GeneID 39798) | DRSC09923 | 5
CG13042 (GeneID 39798) | DRSC28618 | 11
CG6769 (GeneID 32770) | DRSC20006 | 9
pncr011:3L (retired record) (GeneID 3772614) | DRSC37775 | 15
pncr011:3L (retired record) (GeneID 3772614) | DRSC39123 | 3
CG14143 (GeneID 39256) | DRSC10146 | 4
CG14143 (GeneID 39256) | DRSC26503 | 9
Tengl2 (GeneID 318044) | DRSC21968 | 6
Tengl2 (GeneID 318044) | DRSC29284 | 5
Ndfip (GeneID 326197) | DRSC11201 | 9
gudu (GeneID 34014) | DRSC02820 | 6
Rbp (GeneID 41880) | DRSC15724 | 9
Kap-alpha1 (GeneID 40160) | DRSC11356 | 6
CG14104 (GeneID 50259) | DRSC10106 | 7
Vps26 (GeneID 31144) | DRSC18555 | 1
Vps26 (GeneID 31144) | DRSC23556 | 6
CG42720 (retired record) (GeneID 10178794) | DRSC22549 | 9
CG42720 (retired record) (GeneID 10178794) | DRSC29811 | 8
CG16789 (GeneID 41154) | DRSC15155 | 7
CG12134 (GeneID 36038) | DRSC06109 | 8
CG12134 (GeneID 36038) | DRSC24332 | 5
CR15821 (GeneID 3771832) | DRSC08481 | 9
CR15821 (GeneID 3771832) | DRSC24584 | 10
pHCl-1 (GeneID 39730) | DRSC09991 | 4
pHCl-1 (GeneID 39730) | DRSC10589 | 13
cal1 (GeneID 42065) | DRSC15725 | 8
DCTN2-p50 (GeneID 44086) | DRSC07132 | 33
CG12084 (GeneID 192509) | DRSC08247 | 8
CG12084 (GeneID 192509) | DRSC26814 | 5
CG34425 (GeneID 5740837) | DRSC12210 | 7
CG34425 (GeneID 5740837) | DRSC22315 | 11
Tapdelta (GeneID 45680) | DRSC05946 | 7
flap (GeneID 37519) | DRSC03918 | 4
flap (GeneID 37519) | DRSC04087 | 9
CG3223 (GeneID 40947) | DRSC15468 | 7
CG3223 (GeneID 40947) | DRSC28290 | 2

In a second layout: results already given.
gene knocked down	dsRNA	mitotic cells, replicate 1
CG34425 (GeneID 5740837)	DRSC12210	7
CG34425 (GeneID 5740837)	DRSC22315	11
Tapdelta (GeneID 45680)	DRSC05946	7
flap (GeneID 37519)	DRSC03918	4
flap (GeneID 37519)	DRSC04087	9
CG3223 (GeneID 40947)	DRSC15468	7
CG3223 (GeneID 40947)	DRSC28290	2
